PubChem BioAssay AID226 (DTP/NCI, 2004)
The list shows only some results of the screen, not a fair sample: it is rich in T/C values a quarter to a half above the control, in often repeated tests (any T/C) and in doses without a T/C. Further doses and runs are listed elsewhere. T/C gives the treated animals as a percentage of the vehicle group. Some entries give survivors of the animals treated and no T/C: the source files T/C as zero there, which appears to mark a toxic dose or a test without result, not a measured value. Some doses without a T/C left all or most animals alive at the check, yet need not have been tolerated: survival well below the control is almost never listed, so the zero probably covers shortened survival too. Counts of survivors are from the toxicity check (mostly the fifth day) where no day follows; animals may have died later. Schedules are NCI's codes, read here as Q, the interval in days (D) or hours (H), X, the number of doses. Some doses were run more than once; their values stand side by side, smallest first. Marks such as (2×) stand for listed records that agree. Where survival is the endpoint, this PubChem deposit counts one and a half times the control or more as active, and values a quarter to a half above the control carry no call in these data; other NCI protocols may use other cut-offs. Some T/C values are followed by the survivors on the day toxicity was checked, most often the fifth; without a count, all were alive then.

System: B6C3F1 mice, intracerebral ependymoblastoma, median survival T/C
Experiment: NCI In Vivo Anticancer Drug Screen. Data for tumor model Ependymoblastoma (intracerebral) in B6C3F1 mice
Conditions: T/C endpoint: median survival time, higher T/C = longer survival
Procedure: The antitumor activity of compounds was measured in mice bearing transplantable tumors. Survival or tumor size were measured and the results are expressed as the measurement made in the treated group (T) divided by the measurement made in the vehicle treated control group (C). The tumor model used in this assay is Ependymoblastoma (intracerebral) in B6C3F1 mice

[1] = dose: 12.5 mg/kg/injection, schedule: Q01DX005 (ip), vehicle: Klucel (hydroxypropylcellulose) (HPC)
[2] = dose: 100.0 mg/kg/injection, schedule: Q01DX005 (ip), vehicle: Klucel (hydroxypropylcellulose) (HPC)
[3] = dose: 128.0 mg/kg/injection, schedule: Q01DX005 (ip), vehicle: Klucel (hydroxypropylcellulose) (HPC)
[4] = dose: 256.0 mg/kg/injection, schedule: Q01DX005 (ip), vehicle: Klucel (hydroxypropylcellulose) (HPC)
[5] = dose: 0.25 mg/kg/injection, schedule: Q01DX005 (ip), vehicle: saline
[6] = dose: 0.5 mg/kg/injection, schedule: Q01DX005 (ip), vehicle: saline
[7] = dose: 200.0 mg/kg/injection, schedule: Q01DX005 (ip), vehicle: saline with Tween-80
[8] = dose: 400.0 mg/kg/injection, schedule: Q01DX005 (ip), vehicle: saline with Tween-80
[9] = dose: 256.0 mg/kg/injection, schedule: Q01DX005 (ip), vehicle: saline with Tween-80
[10] = dose: 192.0 mg/kg/injection, schedule: Q01DX001 (ip), vehicle: Klucel (hydroxypropylcellulose) (HPC)
[11] = dose: 16.0 mg/kg/injection, schedule: Q01DX005 (ip), vehicle: saline with Tween-80

CN(Cc1cnc2nc(N)nc(N)c2n1)c1ccc(C(=O)N[C@@H](CCC(=O)O)C(=O)O)cc1
survivor count (dose: 32.0 mg/kg/injection, schedule: Q04DX003 (ip), vehicle: saline with Tween-80): 10 of 10
survivor count (dose: 64.0 mg/kg/injection, schedule: Q01DX009 (ip), vehicle: saline with Tween-80): 9 of 10
survivor count (dose: 64.0 mg/kg/injection, schedule: Q04DX003 (ip), vehicle: saline with Tween-80): 8 of 10
survivor count (dose: 128.0 mg/kg/injection, schedule: Q01DX009 (ip), vehicle: saline with Tween-80): 10 of 10
survivor count (dose: 128.0 mg/kg/injection, schedule: Q04DX003 (ip), vehicle: saline with Tween-80): 8 of 10
survivor count (dose: 256.0 mg/kg/injection, schedule: Q01DX009 (ip), vehicle: saline with Tween-80): 9 of 10
survivor count (dose: 256.0 mg/kg/injection, schedule: Q04DX003 (ip), vehicle: saline with Tween-80): 2 of 10
survivor count (dose: 512.0 mg/kg/injection, schedule: Q01DX009 (ip), vehicle: saline with Tween-80): 5 of 10
survivor count (dose: 512.0 mg/kg/injection, schedule: Q04DX003 (ip), vehicle: saline with Tween-80): 1 of 10
survivor count (dose: 1024.0 mg/kg/injection, schedule: Q01DX009 (ip), vehicle: saline with Tween-80): 2 of 10
survivor count (dose: 1024.0 mg/kg/injection, schedule: Q04DX003 (ip), vehicle: saline with Tween-80): 0 of 10

CCC(=O)OCC1OC(n2cnc3c(=S)nc(N)[nH]c32)C(OC(=O)CC)C1OC(=O)CC (stereo unspecified)
survivor count (dose: 6.25 mg/kg/injection, schedule: Q01DX005 (ip), vehicle: Klucel (hydroxypropylcellulose) (HPC)): 10 of 10
T/C [1]: 134 % of control
survivor count [1]: 9 of 10
survivor count (dose: 25.0 mg/kg/injection, schedule: Q01DX005 (ip), vehicle: Klucel (hydroxypropylcellulose) (HPC)): 9 of 10 and 10 of 10
survivor count (dose: 50.0 mg/kg/injection, schedule: Q01DX005 (ip), vehicle: Klucel (hydroxypropylcellulose) (HPC)): 9 of 10
survivor count [2]: 9 of 10

NC(CSC(c1ccccc1)(c1ccccc1)c1ccccc1)C(=O)O (stereo unspecified)
T/C (dose: 64.0 mg/kg/injection, schedule: Q01DX001 (ip), vehicle: Klucel (hydroxypropylcellulose) (HPC)): 88 [survivors not given], 106 [survivors not given], 107, 107 % of control [survivors not given]
T/C (dose: 128.0 mg/kg/injection, schedule: Q01DX001 (ip), vehicle: Klucel (hydroxypropylcellulose) (HPC)): 92 [survivors not given], 101 [survivors not given], 105 [9 of 10 alive], 108 % of control [survivors not given]
survivor count [3]: 9 of 10
T/C (dose: 256.0 mg/kg/injection, schedule: Q01DX001 (ip), vehicle: Klucel (hydroxypropylcellulose) (HPC)): 102 [survivors not given], 103 [survivors not given] (2×), 122 % of control
survivor count [4]: 3 of 10
survivor count (dose: 512.0 mg/kg/injection, schedule: Q01DX001 (ip), vehicle: Klucel (hydroxypropylcellulose) (HPC)): 3 of 10

[N-]=[N+]=CC(=O)CCC(N)C(=O)O (stereo unspecified)
T/C [5]: 94, 98 [7 of 10 alive], 122 % of control
survivor count [5]: 8 of 10
survivor count (dose: 0.4 mg/kg/injection, schedule: Q01DX005 (ip), vehicle: saline): 10 of 10
T/C [6]: 89 and 111 % of control
survivor count [6]: 6 of 10 and 8 of 10
survivor count (dose: 0.8 mg/kg/injection, schedule: Q01DX005 (ip), vehicle: saline): 10 of 10
survivor count (dose: 1.0 mg/kg/injection, schedule: Q01DX005 (ip), vehicle: saline): 5 of 10, 9 of 10, 10 of 10 (2×)
survivor count (dose: 2.0 mg/kg/injection, schedule: Q01DX005 (ip), vehicle: saline): 6 of 10 and 9 of 10
survivor count (dose: 4.0 mg/kg/injection, schedule: Q01DX005 (ip), vehicle: saline): 1 of 10 and 5 of 10

CCSc1ncnc2c1ncn2C1OC(CO)C(O)C1O (stereo unspecified)
T/C (dose: 100.0 mg/kg/injection, schedule: Q01DX005 (ip), vehicle: saline with Tween-80): 127 % of control [9 of 10 alive]
T/C [7]: 128 % of control
survivor count [8]: 0 of 10, 1 of 10, 3 of 10

C[C@]12C=CC(=O)C=C1CC[C@@H]1[C@@H]2CC[C@]2(C)OC(=O)CC[C@@H]12
survivor count [4]: 0 of 6
survivor count [9]: 5 of 10
survivor count (dose: 512.0 mg/kg/injection, schedule: Q01DX005 (ip), vehicle: Klucel (hydroxypropylcellulose) (HPC)): 0 of 6 (2×)
survivor count (dose: 512.0 mg/kg/injection, schedule: Q01DX005 (ip), vehicle: saline with Tween-80): 3 of 10 and 6 of 10

Cc1cc2nc3ccc(N)cc3oc-2cc1=[N+](C)C
survivor count (dose: 100.0 mg/kg/injection, schedule: Q01DX005 (ip), vehicle: saline): 8 of 10
survivor count (dose: 200.0 mg/kg/injection, schedule: Q01DX005 (ip), vehicle: saline): 0 of 10

C1CCC2C[N-]CCC2C1.C1CCC2C[N-]CCC2C1.C1CCC2C[N-]CCC2C1.C1CCC2C[N-]CCC2C1.[Cl][Rh][Cl] (stereo unspecified)
survivor count (dose: 8.0 mg/kg/injection, schedule: Q01DX005 (ip), vehicle: dextrose): 6 of 10
survivor count (dose: 16.0 mg/kg/injection, schedule: Q01DX005 (ip), vehicle: dextrose): 0 of 10
survivor count (dose: 32.0 mg/kg/injection, schedule: Q01DX005 (ip), vehicle: dextrose): 0 of 10

COc1ccc2c(c1)CCC(c1ccccc1)=C2c1ccc(OCCN2CCCC2)cc1
T/C (dose: 24.0 mg/kg/injection, schedule: Q01DX001 (ip), vehicle: Klucel (hydroxypropylcellulose) (HPC)): 95 [survivors not given], 99 [survivors not given], 100 [survivors not given], 107 % of control [9 of 10 alive]
T/C (dose: 48.0 mg/kg/injection, schedule: Q01DX001 (ip), vehicle: Klucel (hydroxypropylcellulose) (HPC)): 98 [survivors not given] (2×), 108, 108 % of control [survivors not given]
T/C (dose: 96.0 mg/kg/injection, schedule: Q01DX001 (ip), vehicle: Klucel (hydroxypropylcellulose) (HPC)): 93, 97 [survivors not given], 106 [survivors not given], 112 % of control [survivors not given]
survivor count [3]: 0 of 10
T/C [10]: 97 [survivors not given], 99 [survivors not given], 107 % of control [survivors not given]
survivor count [10]: 2 of 10

NC(=O)N(CCCl)N=O
T/C (dose: 2.0 mg/kg/injection, schedule: Q01DX001 (ip), vehicle: saline + alcohol): 143 % of control
survivor count (dose: 8.0 mg/kg/injection, schedule: Q01DX001 (ip), vehicle: saline + alcohol): 7 of 10
survivor count (dose: 16.0 mg/kg/injection, schedule: Q01DX001 (ip), vehicle: saline + alcohol): 5 of 10

CN(C)/N=N/c1nc[nH]c1C(N)=O
T/C (dose: 12.5 mg/kg/injection, schedule: Q01DX005 (ip), vehicle: saline with Tween-80): 134 % of control
T/C [11]: 145 % of control
T/C (dose: 25.0 mg/kg/injection, schedule: Q01DX005 (ip), vehicle: saline with Tween-80): 143 % of control
T/C (dose: 50.0 mg/kg/injection, schedule: Q01DX005 (ip), vehicle: saline with Tween-80): 148 % of control
T/C [2]: 136 % of control
T/C (dose: 128.0 mg/kg/injection, schedule: Q01DX005 (ip), vehicle: saline with Tween-80): 146 % of control
T/C (dose: 200.0 mg/kg/injection, schedule: Q01DX005 (ip), vehicle: Klucel (hydroxypropylcellulose) (HPC)): 133 % of control
T/C (dose: 400.0 mg/kg/injection, schedule: Q01DX005 (ip), vehicle: Klucel (hydroxypropylcellulose) (HPC)): 136 % of control

O=[n+]1c2ccccc2n([O-])c2cc(Cl)ccc21
survivor count [7]: 10 of 10
survivor count [8]: 0 of 10

C#CCN(C)/N=N/c1nc[nH]c1C(N)=O
T/C [11]: 134 % of control
T/C (dose: 64.0 mg/kg/injection, schedule: Q01DX005 (ip), vehicle: saline with Tween-80): 146 % of control
survivor count [9]: 5 of 10
